Measurements as given in PMC6516669.
No constants are given. Whether binding was seen depends on the method and setting. Binding seen in cells or lysates may run through a third protein. Some entries that bind do so weakly or less than the wild type.

Columns and labels:
[1] = molecular target: T1, Bradykinin B2 receptor (rat (endogenous in RASMC)) (UniProt P25023); test: co-IP; anti-B2R cross-linked (DMP) to protein A Dynabeads, incubated with NP40 lysates of RASMC (1% NP40, 150 mM NaCl, pH 7.4); eluates blotted with anti-TP, then anti-B2R; cells untreated or stimulated for 10 min with BK 10^-11 M, IBOP 10^-7 M, or BK 10^-11 M + IBOP 10^-7 M; controls: mock beads without antibody, and antibody beads with PBS
T1 sequence: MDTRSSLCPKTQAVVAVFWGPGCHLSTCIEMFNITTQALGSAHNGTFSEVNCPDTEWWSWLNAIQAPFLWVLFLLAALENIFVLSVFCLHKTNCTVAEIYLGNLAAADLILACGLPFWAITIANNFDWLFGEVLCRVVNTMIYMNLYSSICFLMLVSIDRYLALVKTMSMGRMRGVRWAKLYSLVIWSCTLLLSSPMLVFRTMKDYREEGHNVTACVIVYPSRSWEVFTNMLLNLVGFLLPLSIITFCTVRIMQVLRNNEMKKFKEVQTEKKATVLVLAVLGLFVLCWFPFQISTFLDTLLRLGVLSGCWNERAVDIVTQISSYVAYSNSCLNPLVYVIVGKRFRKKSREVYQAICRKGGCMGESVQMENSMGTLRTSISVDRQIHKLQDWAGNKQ

[2] = molecular target: T1, Bradykinin B2 receptor (rat (endogenous in RASMC)); test: proximity ligation; in-situ PLA (Duolink), dual receptor recognition with anti-B2R and anti-TP primary antibodies on fixed (4% paraformaldehyde), permeabilised (0.5% Triton X-100) RASMC; cells untreated or stimulated for 10 min with BK 10^-11 M, IBOP 10^-7 M, BK 10^-11 M + IBOP 10^-7 M, or BK 10^-7 M; blobs counted per cell with BlobFinder

B1: Thromboxane prostanoid receptor (receptor, UniProt P34978 1-341)
chain: MWLNSTSLGACFRPVNITLQERRAIASPWFAASFCALGLGSNLLALSVLAGARPGAGPRSSFLALLCGLVLTDFLGLLVTGAVVASQHAALLDWRATDPGCRLCHFMGAAMVFFGLCPLLLGAAMAAERFVGITRPFSRPAATSRRAWATVGLVWVGAGTLGLLPLLGLGRYSVQYPGSWCFLTLGAERGDVAFGLMFALLGSVSVGLSLLLNTVSVATLCRVYHAREATQRPRDCEVEMMVQLVGIMVVATVCWMPLLVFILQTLLQTLPVMSPSGQLLRTTERQLLIYLRVATWNQILDPWVYILFRRSVLRRLHPRFTSQLQAVSLHSPPTQAMLSGP
B1 was tested, and the binding [1] was “binds” and the binding [2] was “binds”.
